According to the supplement of paper PMC6411743:
± gives the standard deviation of the averaged measurements. Only a part is listed here, and it is no random draw. Most values lie at the level of the controls, where differences are scatter.

Sequences of proteins named here, by UniProt entry; tags and fusion partners are left off. A change or cut given only in a name is not applied to a line headed by its entry.
UniProt Q8N3X1: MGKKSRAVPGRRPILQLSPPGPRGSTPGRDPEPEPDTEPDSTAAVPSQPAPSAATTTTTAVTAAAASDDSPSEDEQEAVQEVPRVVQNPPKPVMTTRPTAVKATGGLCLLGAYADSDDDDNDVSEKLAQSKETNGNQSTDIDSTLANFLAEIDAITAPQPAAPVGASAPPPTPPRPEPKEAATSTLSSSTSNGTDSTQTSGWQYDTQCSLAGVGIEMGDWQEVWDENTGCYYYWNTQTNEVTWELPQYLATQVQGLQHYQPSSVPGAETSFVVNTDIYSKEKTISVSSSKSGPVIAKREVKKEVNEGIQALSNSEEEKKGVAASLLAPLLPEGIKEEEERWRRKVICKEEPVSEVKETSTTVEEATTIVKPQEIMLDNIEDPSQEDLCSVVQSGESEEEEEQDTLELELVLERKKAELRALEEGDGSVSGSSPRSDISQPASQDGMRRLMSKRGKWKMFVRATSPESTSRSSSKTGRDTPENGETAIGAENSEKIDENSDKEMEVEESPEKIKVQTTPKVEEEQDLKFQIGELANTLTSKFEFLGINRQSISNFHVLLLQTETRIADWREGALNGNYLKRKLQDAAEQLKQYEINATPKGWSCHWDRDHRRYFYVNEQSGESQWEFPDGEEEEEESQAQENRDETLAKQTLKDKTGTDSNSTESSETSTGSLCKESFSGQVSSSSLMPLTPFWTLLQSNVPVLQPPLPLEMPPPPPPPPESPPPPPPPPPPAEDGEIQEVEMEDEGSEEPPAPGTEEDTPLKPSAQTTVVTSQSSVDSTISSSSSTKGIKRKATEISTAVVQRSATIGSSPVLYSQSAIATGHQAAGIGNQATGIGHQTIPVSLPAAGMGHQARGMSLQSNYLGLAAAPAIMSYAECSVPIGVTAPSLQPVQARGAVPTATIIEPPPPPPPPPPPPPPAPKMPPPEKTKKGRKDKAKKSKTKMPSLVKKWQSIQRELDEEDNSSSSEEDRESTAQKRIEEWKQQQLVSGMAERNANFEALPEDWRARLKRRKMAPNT
UniProt Q8N183: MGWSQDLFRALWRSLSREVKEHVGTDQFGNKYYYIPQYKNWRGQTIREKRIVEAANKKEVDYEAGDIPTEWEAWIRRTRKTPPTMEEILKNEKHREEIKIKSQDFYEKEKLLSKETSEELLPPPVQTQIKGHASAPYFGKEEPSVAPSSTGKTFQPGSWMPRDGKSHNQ
UniProt Q8IYJ3: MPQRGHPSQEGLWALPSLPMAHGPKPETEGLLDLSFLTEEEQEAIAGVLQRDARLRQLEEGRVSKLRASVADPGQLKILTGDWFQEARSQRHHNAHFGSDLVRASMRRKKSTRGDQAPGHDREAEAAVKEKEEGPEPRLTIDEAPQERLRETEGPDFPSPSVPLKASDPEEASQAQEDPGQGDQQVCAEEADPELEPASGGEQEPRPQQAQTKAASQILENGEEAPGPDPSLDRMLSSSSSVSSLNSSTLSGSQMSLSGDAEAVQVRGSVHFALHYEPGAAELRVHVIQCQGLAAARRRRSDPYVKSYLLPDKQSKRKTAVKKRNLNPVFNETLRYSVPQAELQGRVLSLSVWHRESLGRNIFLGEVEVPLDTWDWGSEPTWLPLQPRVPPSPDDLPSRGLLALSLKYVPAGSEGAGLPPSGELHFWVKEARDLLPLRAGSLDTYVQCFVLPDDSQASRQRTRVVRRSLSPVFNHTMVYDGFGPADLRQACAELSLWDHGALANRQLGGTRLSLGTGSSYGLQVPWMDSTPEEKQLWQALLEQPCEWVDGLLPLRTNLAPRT
UniProt Q8NBF2: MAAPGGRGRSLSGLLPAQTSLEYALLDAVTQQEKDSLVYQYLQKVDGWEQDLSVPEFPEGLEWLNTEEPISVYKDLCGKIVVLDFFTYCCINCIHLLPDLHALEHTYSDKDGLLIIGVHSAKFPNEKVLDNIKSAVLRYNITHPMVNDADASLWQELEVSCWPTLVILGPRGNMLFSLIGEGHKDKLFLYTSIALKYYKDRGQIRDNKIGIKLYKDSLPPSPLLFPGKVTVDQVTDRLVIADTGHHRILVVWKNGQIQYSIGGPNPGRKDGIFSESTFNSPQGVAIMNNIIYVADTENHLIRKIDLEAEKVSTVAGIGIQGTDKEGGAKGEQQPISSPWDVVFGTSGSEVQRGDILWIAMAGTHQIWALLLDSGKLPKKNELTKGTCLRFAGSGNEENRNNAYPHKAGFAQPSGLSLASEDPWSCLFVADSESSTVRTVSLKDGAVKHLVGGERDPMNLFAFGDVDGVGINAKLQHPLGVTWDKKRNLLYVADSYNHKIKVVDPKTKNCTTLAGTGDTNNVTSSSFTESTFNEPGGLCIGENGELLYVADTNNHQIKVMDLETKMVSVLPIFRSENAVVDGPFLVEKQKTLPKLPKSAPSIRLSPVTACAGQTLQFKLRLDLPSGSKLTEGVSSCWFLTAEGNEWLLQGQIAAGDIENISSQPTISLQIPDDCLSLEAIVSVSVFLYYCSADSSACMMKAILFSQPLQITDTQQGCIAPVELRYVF
UniProt Q8TAD8: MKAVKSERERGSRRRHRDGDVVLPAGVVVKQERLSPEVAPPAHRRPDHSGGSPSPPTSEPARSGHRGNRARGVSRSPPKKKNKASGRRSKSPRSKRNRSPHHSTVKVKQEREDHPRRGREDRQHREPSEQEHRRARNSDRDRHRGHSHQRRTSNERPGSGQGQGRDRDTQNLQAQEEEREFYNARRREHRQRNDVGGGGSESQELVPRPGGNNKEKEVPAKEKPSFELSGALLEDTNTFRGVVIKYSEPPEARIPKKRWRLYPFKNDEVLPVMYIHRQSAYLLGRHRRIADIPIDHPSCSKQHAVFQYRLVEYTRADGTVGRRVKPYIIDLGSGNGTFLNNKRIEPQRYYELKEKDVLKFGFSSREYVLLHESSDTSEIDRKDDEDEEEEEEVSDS
UniProt Q8IYD1, whole entry: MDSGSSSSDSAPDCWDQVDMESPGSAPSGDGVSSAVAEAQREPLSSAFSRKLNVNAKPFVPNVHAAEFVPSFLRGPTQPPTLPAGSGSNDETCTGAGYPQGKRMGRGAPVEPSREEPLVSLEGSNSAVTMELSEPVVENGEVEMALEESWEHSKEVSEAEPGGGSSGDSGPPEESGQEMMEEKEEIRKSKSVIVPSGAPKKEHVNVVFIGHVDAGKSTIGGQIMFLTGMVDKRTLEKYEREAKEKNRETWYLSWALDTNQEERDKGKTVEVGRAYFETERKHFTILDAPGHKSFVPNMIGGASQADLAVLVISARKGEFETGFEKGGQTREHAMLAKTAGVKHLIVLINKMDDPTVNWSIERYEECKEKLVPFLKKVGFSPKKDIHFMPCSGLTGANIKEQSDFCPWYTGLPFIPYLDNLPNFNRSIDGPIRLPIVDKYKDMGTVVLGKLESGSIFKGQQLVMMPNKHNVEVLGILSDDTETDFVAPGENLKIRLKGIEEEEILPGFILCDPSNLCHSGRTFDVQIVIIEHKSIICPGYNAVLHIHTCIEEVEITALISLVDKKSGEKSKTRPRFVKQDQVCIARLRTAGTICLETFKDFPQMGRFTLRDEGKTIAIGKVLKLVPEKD
UniProt Q8N8D1: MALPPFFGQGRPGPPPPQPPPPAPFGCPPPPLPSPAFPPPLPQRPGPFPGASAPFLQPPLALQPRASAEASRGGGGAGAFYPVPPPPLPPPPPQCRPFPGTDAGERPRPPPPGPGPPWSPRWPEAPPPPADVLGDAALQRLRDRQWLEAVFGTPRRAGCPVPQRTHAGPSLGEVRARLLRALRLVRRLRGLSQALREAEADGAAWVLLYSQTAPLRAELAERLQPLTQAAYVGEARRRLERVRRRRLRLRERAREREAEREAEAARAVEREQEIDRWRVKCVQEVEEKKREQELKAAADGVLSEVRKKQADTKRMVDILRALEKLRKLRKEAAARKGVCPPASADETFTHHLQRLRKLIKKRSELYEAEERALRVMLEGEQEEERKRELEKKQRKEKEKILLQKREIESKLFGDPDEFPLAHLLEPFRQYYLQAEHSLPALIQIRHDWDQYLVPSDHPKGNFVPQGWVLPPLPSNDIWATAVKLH
UniProt Q8IWZ8: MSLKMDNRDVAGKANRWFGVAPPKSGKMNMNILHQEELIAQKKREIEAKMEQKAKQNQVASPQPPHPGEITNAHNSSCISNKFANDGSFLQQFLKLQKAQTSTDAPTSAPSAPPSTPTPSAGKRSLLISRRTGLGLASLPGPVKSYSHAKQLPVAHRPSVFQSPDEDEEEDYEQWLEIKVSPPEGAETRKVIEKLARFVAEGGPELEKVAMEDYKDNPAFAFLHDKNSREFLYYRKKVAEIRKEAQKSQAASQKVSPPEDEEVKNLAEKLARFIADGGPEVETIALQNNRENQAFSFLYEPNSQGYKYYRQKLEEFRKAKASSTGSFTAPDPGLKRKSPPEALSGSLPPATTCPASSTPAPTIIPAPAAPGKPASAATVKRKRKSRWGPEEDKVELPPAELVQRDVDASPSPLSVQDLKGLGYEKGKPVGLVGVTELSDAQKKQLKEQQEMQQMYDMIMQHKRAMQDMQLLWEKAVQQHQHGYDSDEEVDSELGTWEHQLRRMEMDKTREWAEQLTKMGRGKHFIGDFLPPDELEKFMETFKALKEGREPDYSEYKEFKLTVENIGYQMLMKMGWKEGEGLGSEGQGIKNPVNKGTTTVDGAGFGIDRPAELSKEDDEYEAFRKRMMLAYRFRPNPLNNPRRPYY
UniProt Q8NB78: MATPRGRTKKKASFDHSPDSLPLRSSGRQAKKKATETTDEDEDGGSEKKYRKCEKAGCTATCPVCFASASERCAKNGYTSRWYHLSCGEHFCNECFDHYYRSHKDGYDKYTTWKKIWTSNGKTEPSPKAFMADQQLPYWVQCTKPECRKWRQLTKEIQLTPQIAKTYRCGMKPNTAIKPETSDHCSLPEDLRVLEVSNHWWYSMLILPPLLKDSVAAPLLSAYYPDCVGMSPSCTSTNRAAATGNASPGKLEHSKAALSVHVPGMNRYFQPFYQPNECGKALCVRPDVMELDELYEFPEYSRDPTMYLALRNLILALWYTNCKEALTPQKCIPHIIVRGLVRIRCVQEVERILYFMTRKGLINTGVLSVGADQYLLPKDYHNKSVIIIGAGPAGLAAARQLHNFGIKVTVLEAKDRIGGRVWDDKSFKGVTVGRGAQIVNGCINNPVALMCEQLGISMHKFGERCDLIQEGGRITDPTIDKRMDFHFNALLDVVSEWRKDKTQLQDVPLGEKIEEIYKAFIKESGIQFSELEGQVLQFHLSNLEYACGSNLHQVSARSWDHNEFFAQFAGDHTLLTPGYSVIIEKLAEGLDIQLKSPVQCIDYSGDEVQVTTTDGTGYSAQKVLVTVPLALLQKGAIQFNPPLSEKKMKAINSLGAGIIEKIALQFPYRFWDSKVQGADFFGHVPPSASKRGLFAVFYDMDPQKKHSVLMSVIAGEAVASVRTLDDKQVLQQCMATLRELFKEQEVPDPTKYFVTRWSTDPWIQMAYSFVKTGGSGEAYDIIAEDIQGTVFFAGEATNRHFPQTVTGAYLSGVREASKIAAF
UniProt Q8N5Y8: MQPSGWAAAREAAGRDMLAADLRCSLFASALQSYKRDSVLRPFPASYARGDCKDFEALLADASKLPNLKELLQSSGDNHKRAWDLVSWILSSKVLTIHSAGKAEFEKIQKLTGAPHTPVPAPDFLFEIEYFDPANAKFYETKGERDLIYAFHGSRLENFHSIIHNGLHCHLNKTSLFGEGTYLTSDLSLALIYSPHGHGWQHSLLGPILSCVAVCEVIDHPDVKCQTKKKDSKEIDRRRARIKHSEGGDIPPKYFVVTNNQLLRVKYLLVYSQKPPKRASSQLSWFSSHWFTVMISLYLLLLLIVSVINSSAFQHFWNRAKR
UniProt Q8IWB7: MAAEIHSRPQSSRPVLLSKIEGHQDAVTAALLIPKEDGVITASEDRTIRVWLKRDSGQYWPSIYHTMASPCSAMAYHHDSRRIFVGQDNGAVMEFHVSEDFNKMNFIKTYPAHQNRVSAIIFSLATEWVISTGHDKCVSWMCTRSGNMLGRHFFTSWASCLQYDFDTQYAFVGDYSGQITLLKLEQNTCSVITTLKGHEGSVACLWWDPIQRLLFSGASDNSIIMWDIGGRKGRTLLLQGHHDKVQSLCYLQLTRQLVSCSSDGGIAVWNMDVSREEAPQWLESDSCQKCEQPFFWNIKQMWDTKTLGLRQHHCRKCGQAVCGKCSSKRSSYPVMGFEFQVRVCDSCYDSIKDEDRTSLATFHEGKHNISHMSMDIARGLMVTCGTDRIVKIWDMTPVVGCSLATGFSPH
UniProt Q8NEJ9: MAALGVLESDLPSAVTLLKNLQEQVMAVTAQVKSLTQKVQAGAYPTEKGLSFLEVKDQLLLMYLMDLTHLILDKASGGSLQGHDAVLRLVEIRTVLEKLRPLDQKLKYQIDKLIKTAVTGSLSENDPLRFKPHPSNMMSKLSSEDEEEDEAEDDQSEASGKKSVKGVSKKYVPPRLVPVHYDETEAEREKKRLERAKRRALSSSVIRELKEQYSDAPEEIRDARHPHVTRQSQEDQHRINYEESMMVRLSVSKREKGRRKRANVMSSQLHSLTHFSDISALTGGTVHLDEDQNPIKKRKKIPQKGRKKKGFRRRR

Compound: Nc1ncnc2c1ncn2[C@@H]1O[C@H](COP(=O)(O)OP(=O)(O)OP(=O)(O)O)[C@@H](O)[C@H]1O [adenosine triphosphate]
Assay: NP40-soluble protein abundance relative to vehicle (solubility fold change) (ratio); higher = more soluble protein in presence of ATP
Procedure, shortened: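 Values are fold changes against the detergent-processed vehicle, based on vsn-normalised intensities. Jurkat crude lysate was treated at eight concentrations from 0.1 to 10 mM (10 min at room temperature, then 3 min at 37 °C), solubilised with 0.8% NP40 and benzonase, ultracentrifuged and analysed by TMT-labelled LC-MS/MS over three independent experiments.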

Row | Target | NP40-soluble protein abundance (concentration: 0.1mM) | NP40-soluble protein abundance (concentration: 0.5mM) | NP40-soluble protein abundance (concentration: 1mM) | NP40-soluble protein abundance (concentration: 2mM) | NP40-soluble protein abundance (concentration: 4mM) | NP40-soluble protein abundance (concentration: 6mM) | NP40-soluble protein abundance (concentration: 8mM) | NP40-soluble protein abundance (concentration: 10mM)
1 | UniProt Q8NI08-2 | 1.05 ± 0.067 | 1.04 ± 0.023 | 0.989 ± 0.064 | 1.03 ± 0.032 | 1.01 ± 0.016 | 1.02 ± 0.022 | 0.989 ± 0.039 | 0.993 ± 0.024
2 | UniProt Q8N3X1 and related entries | 0.903 ± 0.017 | 0.952 ± 0.0036 | 1.01 ± 0.026 | 1.11 ± 0.013 | 1.29 ± 0.042 | 1.57 ± 0.027 | 1.72 ± 0.08 | 1.9 ± 0.082
3 | UniProt Q8N137 and related entries | 1 ± 0.075 | 1.03 ± 0.059 | 0.92 ± 0.024 | 1.032 ± 0.006 | 1.15 ± 0.056 | 0.983 ± 0.054 | 0.945 ± 0.026 | 0.947 ± 0.2
4 | PPP1R35 (UniProt Q8TAP8) | 0.906 ± 0.12 | 0.954 ± 0.023 |  |  |  |  |  | 
5 | UBR1 (UniProt Q8IWV7) | 1.09 ± 0.079 | 1.06 ± 0.072 |  |  |  |  |  | 
6 | NDUFAF2 (UniProt Q8N183) | 0.935 ± 0.15 | 0.885 ± 0.14 | 0.927 ± 0.11 | 0.916 ± 0.046 | 0.934 ± 0.093 | 0.906 ± 0.046 | 0.959 ± 0.062 | 0.848 ± 0.12
7 | UniProt Q8NC60 | 0.964 ± 0.083 | 0.923 ± 0.13 | 0.967 ± 0.17 | 0.876 ± 0.13 | 0.889 ± 0.13 | 0.876 ± 0.2 | 0.945 ± 0.15 | 0.942 ± 0.14
8 | UniProt Q8NCU8-2 | 0.666 ± 0.18 | 0.599 ± 0.048 | 0.876 ± 0.17 | 0.822 ± 0.086 | 0.826 ± 0.14 | 0.769 ± 0.068 | 0.883 ± 0.12 | 0.752 ± 0.038
9 | ZCCHC7 (UniProt Q8N3Z6) | 1.0226 ± 0.00045 | 1.12 ± 0.022 | 1.02 ± 0.19 | 1.2 ± 0.026 | 1.34 ± 0.021 | 1.48 ± 0.018 | 1.51 ± 0.15 | 1.79 ± 0.044
10 | SYTL1 (UniProt Q8IYJ3) | 1.03 ± 0.034 | 1 ± 0.08 |  |  |  |  |  | 
11 | UniProt Q8NG08 and related entries | 1.03 ± 0.11 | 1.02 ± 0.1 | 1.05 ± 0.18 | 1.06 ± 0.12 | 1.09 ± 0.16 | 0.955 ± 0.13 | 0.984 ± 0.066 | 1.01 ± 0.1
12 | UniProt Q8N6R0 | 1.05 ± 0.067 | 1.03 ± 0.06 | 1.04 ± 0.096 | 1 ± 0.081 | 1.05 ± 0.072 | 0.979 ± 0.085 | 1.05 ± 0.075 | 1.01 ± 0.053
13 | UniProt Q8N6N3 and related entries | 0.952 ± 0.084 | 0.848 ± 0.048 | 0.865 ± 0.1 | 0.81 ± 0.041 | 0.869 ± 0.13 | 0.822 ± 0.051 | 0.779 ± 0.12 | 0.817 ± 0.063
14 | NHLRC2 (UniProt Q8NBF2) | 1.03 ± 0.1 | 1.07 ± 0.12 | 1.01 ± 0.078 | 0.994 ± 0.096 | 0.979 ± 0.091 | 0.976 ± 0.12 | 0.985 ± 0.1 | 0.983 ± 0.09
15 | SNIP1 (UniProt Q8TAD8) | 1.11 ± 0.048 | 1.13 ± 0.043 | 1.18 ± 0.044 | 1.22 ± 0.055 | 1.44 ± 0.085 | 1.57 ± 0.098 | 1.67 ± 0.11 | 1.8 ± 0.1
16 | UniProt Q8IY17 and related entries | 1.01 ± 0.04 | 1.05 ± 0.053 | 1.05 ± 0.056 | 1.05 ± 0.033 | 1.028 ± 0.0096 | 1.01 ± 0.051 | 1.04 ± 0.04 | 1.06 ± 0.036
17 | GSPT2 (UniProt Q8IYD1) | 1.03 ± 0.02 | 1.04 ± 0.08 | 1.035 ± 0.0061 | 1.023 ± 0.0095 | 1 ± 0.016 | 1.01 ± 0.02 | 0.991 ± 0.042 | 0.987 ± 0.037
18 | PDCD7 (UniProt Q8N8D1) | 1.02 ± 0.12 | 1.15 ± 0.15 | 1.22 ± 0.14 | 1.24 ± 0.058 | 1.48 ± 0.099 | 1.48 ± 0.024 | 1.49 ± 0.13 | 1.76 ± 0.16
19 | KIF18A (UniProt Q8NI77) | 0.999 ± 0.051 | 0.906 ± 0.061 | 1.09 ± 0.11 | 0.996 ± 0.2 | 1.09 ± 0.035 | 1.06 ± 0.013 | 1.09 ± 0.18 | 1.18 ± 0.16
20 | UniProt Q8IWZ8 | 0.977 ± 0.021 | 1.02 ± 0.033 | 1.03 ± 0.036 | 1.05 ± 0.037 | 1.08 ± 0.034 | 1.11 ± 0.068 | 1.11 ± 0.051 | 1.09 ± 0.037
21 | UniProt Q8NB78 | 1.05 ± 0.06 | 1.05 ± 0.037 | 1.11 ± 0.064 | 1.09 ± 0.025 | 1.11 ± 0.08 | 0.998 ± 0.08 | 1.11 ± 0.035 | 1.09 ± 0.025
22 | UniProt Q8N5Y8 and related entries | 1.05 ± 0.014 | 1.06 ± 0.014 |  |  |  |  |  | 
23 | WDFY1 (UniProt Q8IWB7) | 1.06 ± 0.07 | 1.01 ± 0.06 |  |  |  |  |  | 
24 | ZNF579 (UniProt Q8NAF0) | 1.1 ± 0.15 | 0.955 ± 0.091 | 0.954 ± 0.03 | 1.06 ± 0.12 | 0.945 ± 0.016 | 0.936 ± 0.073 | 0.901 ± 0.045 | 0.887 ± 0.1
25 | SMC5 (UniProt Q8IY18) | 1.04 ± 0.031 | 1.05 ± 0.027 | 1.02 ± 0.026 | 1.02 ± 0.013 | 1.02 ± 0.02 | 1.04 ± 0.02 | 1.04 ± 0.016 | 1.04 ± 0.017
26 | UniProt Q8N684 and related entries | 1.03 ± 0.023 | 1.33 ± 0.06 | 1.51 ± 0.076 | 1.61 ± 0.016 | 1.75 ± 0.065 | 1.81 ± 0.081 | 1.82 ± 0.055 | 1.83 ± 0.032
27 | UniProt Q8NEJ9 and related entries | 1.01 ± 0.065 | 1.03 ± 0.11 | 1.11 ± 0.12 | 1.13 ± 0.16 | 1.24 ± 0.064 | 1.29 ± 0.14 | 1.32 ± 0.058 | 1.34 ± 0.19

Single entries from the entries so far:
Entry for NDUFAF2 (UniProt Q8N183) under NP40-soluble protein abundance (concentration: 6mM): 0.906 ± 0.046
Entry for UniProt Q8NC60 under NP40-soluble protein abundance (concentration: 2mM): 0.876 ± 0.13
